From PubChem BioAssay AID2662 (National Center for Advancing Translational Sciences (NCATS), 2010)
Screen size: about 290,000 compounds; about 110 (0.038%) were called active. This list was built around the results that the source calls inconclusive (neither active nor inactive); the mix of calls is not that of the screen. The call rests on the fitted dose curve; in most records, active means well fitted inhibition curve with a large enough effect in the polarisation, with a control signal flat (not every such curve was filed as active); inconclusive means small, poorly fitted or top-dose-only effect, or effect the other way, or a change in a side signal; inactive means no such curve, though single readings can be large or run the other way; the % refers to the polarisation. Potencies of inconclusive entries are doubtful fits and often do not repeat. A note “side channel” means that the fit belongs to a control or component signal, not to the main read-out.

Sequences of proteins named here, by UniProt entry; tags and fusion partners are left off.
UniProt Q03164, whole entry, looked up: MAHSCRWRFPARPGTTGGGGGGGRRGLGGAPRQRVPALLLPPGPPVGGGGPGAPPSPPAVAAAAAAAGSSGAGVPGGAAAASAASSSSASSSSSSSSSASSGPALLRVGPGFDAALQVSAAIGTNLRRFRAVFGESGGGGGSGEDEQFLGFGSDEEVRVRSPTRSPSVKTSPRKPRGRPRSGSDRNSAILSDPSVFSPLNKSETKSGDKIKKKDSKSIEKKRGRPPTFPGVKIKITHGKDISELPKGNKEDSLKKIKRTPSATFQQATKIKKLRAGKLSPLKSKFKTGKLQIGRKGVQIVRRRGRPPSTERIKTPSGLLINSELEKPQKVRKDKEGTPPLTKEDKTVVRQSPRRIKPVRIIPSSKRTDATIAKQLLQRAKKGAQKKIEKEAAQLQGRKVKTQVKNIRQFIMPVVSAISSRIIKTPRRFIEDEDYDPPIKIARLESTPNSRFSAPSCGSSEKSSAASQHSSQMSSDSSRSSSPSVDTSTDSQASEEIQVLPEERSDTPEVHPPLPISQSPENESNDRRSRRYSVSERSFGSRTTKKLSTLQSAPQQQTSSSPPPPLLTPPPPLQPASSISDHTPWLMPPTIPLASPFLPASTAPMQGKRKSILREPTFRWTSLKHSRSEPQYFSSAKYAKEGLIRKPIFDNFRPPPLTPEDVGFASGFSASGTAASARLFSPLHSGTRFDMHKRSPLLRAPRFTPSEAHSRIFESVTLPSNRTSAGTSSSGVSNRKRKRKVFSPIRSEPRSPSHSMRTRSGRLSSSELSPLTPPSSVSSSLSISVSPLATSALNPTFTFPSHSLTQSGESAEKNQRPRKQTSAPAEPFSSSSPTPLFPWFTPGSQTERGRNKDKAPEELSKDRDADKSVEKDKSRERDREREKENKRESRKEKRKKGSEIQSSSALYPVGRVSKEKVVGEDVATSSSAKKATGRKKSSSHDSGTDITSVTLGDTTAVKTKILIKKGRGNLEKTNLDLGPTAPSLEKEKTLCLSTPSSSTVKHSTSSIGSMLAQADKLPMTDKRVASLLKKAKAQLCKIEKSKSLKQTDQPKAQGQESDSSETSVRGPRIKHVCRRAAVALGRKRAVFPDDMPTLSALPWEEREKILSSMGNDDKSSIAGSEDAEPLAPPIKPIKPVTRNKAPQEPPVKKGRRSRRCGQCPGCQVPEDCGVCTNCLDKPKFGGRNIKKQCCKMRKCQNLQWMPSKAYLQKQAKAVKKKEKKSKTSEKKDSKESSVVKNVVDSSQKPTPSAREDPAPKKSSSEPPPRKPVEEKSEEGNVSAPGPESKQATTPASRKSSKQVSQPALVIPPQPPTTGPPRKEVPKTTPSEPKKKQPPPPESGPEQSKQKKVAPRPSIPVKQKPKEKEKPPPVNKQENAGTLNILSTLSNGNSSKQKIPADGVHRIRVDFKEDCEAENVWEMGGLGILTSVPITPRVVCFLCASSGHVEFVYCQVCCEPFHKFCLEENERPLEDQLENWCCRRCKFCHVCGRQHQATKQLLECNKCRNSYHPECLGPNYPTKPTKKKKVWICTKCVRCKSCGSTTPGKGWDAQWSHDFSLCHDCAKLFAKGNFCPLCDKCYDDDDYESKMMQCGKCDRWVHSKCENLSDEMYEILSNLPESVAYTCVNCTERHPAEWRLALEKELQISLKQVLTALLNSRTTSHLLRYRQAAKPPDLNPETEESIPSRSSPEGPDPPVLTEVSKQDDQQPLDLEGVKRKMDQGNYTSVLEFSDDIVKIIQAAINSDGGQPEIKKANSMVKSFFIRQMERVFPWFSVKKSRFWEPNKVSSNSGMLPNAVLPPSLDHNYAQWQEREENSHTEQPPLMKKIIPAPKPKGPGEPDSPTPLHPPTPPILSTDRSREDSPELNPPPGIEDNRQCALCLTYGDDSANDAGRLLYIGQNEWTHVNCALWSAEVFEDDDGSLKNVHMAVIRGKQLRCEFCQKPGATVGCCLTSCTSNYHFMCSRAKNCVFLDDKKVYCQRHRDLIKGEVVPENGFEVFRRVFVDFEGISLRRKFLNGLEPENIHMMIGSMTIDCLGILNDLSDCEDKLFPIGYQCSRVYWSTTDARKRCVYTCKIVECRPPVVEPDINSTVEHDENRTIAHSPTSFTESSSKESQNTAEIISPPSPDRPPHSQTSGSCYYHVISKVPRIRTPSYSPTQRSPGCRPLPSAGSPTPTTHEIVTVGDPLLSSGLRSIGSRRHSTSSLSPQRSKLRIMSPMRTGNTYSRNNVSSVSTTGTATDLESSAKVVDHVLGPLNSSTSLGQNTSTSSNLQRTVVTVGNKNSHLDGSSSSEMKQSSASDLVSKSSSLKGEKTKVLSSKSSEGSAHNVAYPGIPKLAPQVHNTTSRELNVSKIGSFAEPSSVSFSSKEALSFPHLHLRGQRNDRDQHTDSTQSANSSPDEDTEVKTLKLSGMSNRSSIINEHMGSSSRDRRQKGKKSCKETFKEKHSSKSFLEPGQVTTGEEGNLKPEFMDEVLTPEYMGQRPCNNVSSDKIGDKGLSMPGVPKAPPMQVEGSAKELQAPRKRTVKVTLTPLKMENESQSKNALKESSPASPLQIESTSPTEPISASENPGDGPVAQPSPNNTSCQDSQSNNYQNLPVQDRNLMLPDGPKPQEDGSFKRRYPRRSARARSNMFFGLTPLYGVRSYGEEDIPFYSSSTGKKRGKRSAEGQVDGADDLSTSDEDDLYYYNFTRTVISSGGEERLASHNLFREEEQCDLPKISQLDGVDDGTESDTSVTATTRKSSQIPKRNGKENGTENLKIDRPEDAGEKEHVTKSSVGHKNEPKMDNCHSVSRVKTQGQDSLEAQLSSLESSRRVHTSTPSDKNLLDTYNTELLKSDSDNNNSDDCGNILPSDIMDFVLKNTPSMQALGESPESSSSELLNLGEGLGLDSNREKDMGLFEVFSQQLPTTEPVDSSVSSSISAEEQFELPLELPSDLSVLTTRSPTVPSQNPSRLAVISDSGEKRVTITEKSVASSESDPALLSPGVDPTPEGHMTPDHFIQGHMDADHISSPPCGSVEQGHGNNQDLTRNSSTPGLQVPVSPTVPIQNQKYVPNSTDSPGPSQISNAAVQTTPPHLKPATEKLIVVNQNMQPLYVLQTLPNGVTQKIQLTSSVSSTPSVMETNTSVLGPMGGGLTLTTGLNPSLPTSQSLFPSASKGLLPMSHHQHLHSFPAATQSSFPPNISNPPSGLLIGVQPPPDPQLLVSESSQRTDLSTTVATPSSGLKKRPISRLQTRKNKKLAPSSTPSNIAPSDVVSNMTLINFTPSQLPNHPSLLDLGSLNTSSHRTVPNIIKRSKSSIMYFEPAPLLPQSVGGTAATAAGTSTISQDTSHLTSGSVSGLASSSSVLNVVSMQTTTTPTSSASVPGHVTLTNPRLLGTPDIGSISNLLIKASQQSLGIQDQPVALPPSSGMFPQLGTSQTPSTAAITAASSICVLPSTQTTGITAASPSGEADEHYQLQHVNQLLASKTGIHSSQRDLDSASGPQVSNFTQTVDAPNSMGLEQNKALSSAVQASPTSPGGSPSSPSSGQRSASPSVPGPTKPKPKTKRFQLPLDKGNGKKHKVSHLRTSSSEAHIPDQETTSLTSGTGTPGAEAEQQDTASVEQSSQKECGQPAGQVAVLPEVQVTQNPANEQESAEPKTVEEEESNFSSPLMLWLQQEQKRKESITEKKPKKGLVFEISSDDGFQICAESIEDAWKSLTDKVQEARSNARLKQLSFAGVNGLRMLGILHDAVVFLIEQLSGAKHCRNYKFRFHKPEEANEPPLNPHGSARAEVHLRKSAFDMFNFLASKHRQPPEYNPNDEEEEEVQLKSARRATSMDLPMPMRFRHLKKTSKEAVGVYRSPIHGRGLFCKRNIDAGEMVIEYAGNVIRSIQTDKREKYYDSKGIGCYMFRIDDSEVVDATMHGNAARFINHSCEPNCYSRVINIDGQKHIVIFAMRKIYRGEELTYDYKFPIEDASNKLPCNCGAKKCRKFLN

Target: Histone-lysine N-methyltransferase 2A (Homo sapiens) (UniProt Q03164)
Assay: qHTS Fluorescence Polarization Assay for Inhibitors of MLL CXXC domain - DNA interaction
Settings: MLL-CXXC / FITC-HOXA9 DNA fluorescence polarization; series mostly up to 115 µM
Outline: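 Purified MLL-CXXC (added from a 7 uM solution) was preincubated 5 min at ambient with pinned compounds in 50 mM Tris-HCl pH 7.5, 50 mM NaCl, 1 mM DTT, 0.05% BSA. Fluorescein-labeled HOX-A9 DNA (50 nM solution) followed, 30 min, then polarization read.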
Potency means the concentration at half of the fitted maximal effect.

| Compound | Potency |
| --- | --- |
| O=C(O)CNC(=O)CC1S/C(=N/N=C2/NC(=O)CS2)NC1=O (stereo not drawn) | inconclusive: 35.5 µM [fluorescent, side channel, partial curve] |
| CCC12OC(=N)C(C#N)(C1C)C(C#N)(C#N)C(c1ccccc1)O2 (stereo not drawn) | active: 20 µM |
| COc1ccc(-c2ncncc2-c2ccc(OC)c(OC)c2)c(O)c1 | inactive |
| CN(C)/N=C/c1ccc([N+](=O)[O-])cc1[N+](=O)[O-] | inconclusive: 1 µM [fluorescent, side channel, full curve, poor fit] |
| N#CC(C(=O)NCCc1ccccc1)c1nc2ccccc2nc1N1CCCCC1 (stereo not drawn) | inactive |
| CCOC(=O)N1CCC(NC(=O)c2ccc3c(c2)N(C)CCS3)CC1 | inactive |
| Cc1nc(Nc2ccc(Cl)cc2)c2oc3ccccc3c2n1 | inconclusive: 70.8 µM [fluorescent, side channel, single point] |
| S=c1[nH]nc(-c2ccc(Cl)cc2Cl)n1-c1ccc(Cl)cc1 | inconclusive: 39.8 µM [fluorescent, side channel, single point] |
| CC(=O)n1c(C=Nc2ccc(Cl)cc2)c(O)c2ccccc21 | inconclusive: 35.5 µM [fluorescent, side channel, partial curve] |
| O=C(N/N=C/c1cc(Br)ccc1OC(=O)c1ccc(Br)cc1)c1ccncc1 | inconclusive: 10 µM [quencher, side channel, full curve, poor fit] |
| O=C(CNCc1ccc(Cl)cc1)Nc1cccc(C(=O)O)c1 | inconclusive: 14.1 µM [fluorescent, side channel, full curve] |
| C=CCOC(=O)C1=C[C@@H](c2ccc(C(F)(F)F)cc2)[C@H](CCCO)[C@@H](OCC)O1 | inconclusive: 35.5 µM [inhibitor, single point] |
| Cc1nc(Cl)cc(N/N=C/c2ccc(O)cc2O)n1 | inconclusive: 17.8 µM [quencher, side channel, partial curve] |
| CNC(CC(=O)c1ccc([N+](=O)[O-])cc1)C(Cl)(Cl)Cl (stereo not drawn) | inconclusive: 35.5 µM [quencher, side channel, partial curve] |
| Cc1cccc(N2C(=O)c3cccc4c(N)ccc(c34)C2=O)c1 | inconclusive: 7.08 µM [fluorescent, side channel, full curve] |
| CCSC1=NCCN1S(=O)(=O)c1ccc(F)cc1 | inconclusive: 14.1 µM [fluorescent, side channel, full curve, poor fit] |
| O=C1CCCC/C1=C\Nc1ccc(O)cc1 | inactive |
| CCN(CC)c1ccc(/C=C(/C#N)C(=O)NC(C)C)o1 | inconclusive: 31.6 µM [fluorescent, side channel, partial curve] |
| CN1CCN(C(=O)c2ccc3c(=O)n(Cc4ccco4)c(=S)[nH]c3c2)CC1 | inactive |
| COc1cccc(/C=C2/SC(=O)N(CC(=O)N3CCc4ccccc4C3)C2=O)c1OCC(=O)O | inconclusive: 35.5 µM [inhibitor, single point] |
| CCCn1c(SCC(=O)N2CCN(c3ccccc3)CC2)nc2ccccc2c1=O | inactive |

Structures from the list above that have an aryl methoxy group, in the order listed:

| Compound | Potency |
| --- | --- |
| COc1ccc(-c2ncncc2-c2ccc(OC)c(OC)c2)c(O)c1 | inactive |
| COc1cccc(/C=C2/SC(=O)N(CC(=O)N3CCc4ccccc4C3)C2=O)c1OCC(=O)O | inconclusive: 35.5 µM [inhibitor, single point] |

Taken from above:
C=CCOC(=O)C1=C[C@@H](c2ccc(C(F)(F)F)cc2)[C@H](CCCO)[C@@H](OCC)O1 | Potency: inconclusive: 35.5 µM [inhibitor, single point]
COc1cccc(/C=C2/SC(=O)N(CC(=O)N3CCc4ccccc4C3)C2=O)c1OCC(=O)O | Potency: inconclusive: 35.5 µM [inhibitor, single point]

The list goes on:

| Compound | Potency |
| --- | --- |
| CCC(=O)N1CCc2cc(Br)cc(S(=O)(=O)CC(=O)OC)c21 | inactive |
| COc1cccc(C(=O)NCCSc2ccc(Br)cc2)c1 | inconclusive: 8.91 µM [fluorescent, side channel, single point] |
| CN(C)CCCN=Cc1c(O)n(Cc2ccccc2)c(=O)c2ccccc12 | inactive |
| COc1ccc(C2CC(c3ccccc3)=NN2c2ccc(S(N)(=O)=O)cc2)cc1OC (stereo not drawn) | inconclusive: 1.12 µM [fluorescent, side channel, full curve, poor fit] |
| Cc1cccc(C(=O)N[C@H](C(=O)Nc2nc3ccc(S(C)(=O)=O)cc3s2)C(C)C)c1 | inconclusive: 31.6 µM [quencher, side channel, single point] |
| CN1CCN(c2ccc(NC(=S)NC(=O)c3cccc4c(Cl)cccc34)cc2)CC1 | inactive |
| O=c1/c(=C/c2ccc(O)c([N+](=O)[O-])c2)sc2nc3ccccc3n12 | inconclusive: 70.8 µM [inhibitor, single point] |
| COc1ccc(C(=O)/C=C2\NCC3c4ccccc4CCN3C2=O)cc1 (stereo not drawn) | inconclusive: 31.6 µM [fluorescent, side channel, partial curve] |
| O=C(Nc1ccc2oc(-c3ccccc3F)nc2c1)c1ccc2c(c1)OCCO2 | inconclusive: 15.8 µM [inhibitor, partial curve] |
| Cc1cc(N/N=C/c2ccccc2Cl)nc(NCc2ccccc2)n1 | inconclusive: 6.31 µM [quencher, side channel, single point] |
| CC(=O)N1CCc2cc3nc(C)cc(C)c3cc21 | inactive |
| CC(C)c1ccc(NCCC(=O)c2cccs2)cc1 | inconclusive: 89.1 µM [inhibitor, single point] |
| Cc1ccnc2c1ccc1ccccc12 | inactive |
| O=C(O)c1ccc(NC(=S)NC(=O)c2ccc(-c3ccccc3)cc2)cc1 | inconclusive: 8.91 µM [fluorescent, side channel, full curve] |
| Cc1ccc(S(=O)(=O)Nc2ccc(N3CCOCC3)nc2)cc1 | inconclusive: 31.6 µM [fluorescent, side channel, partial curve] |
| CCCCNC(=O)COc1ccccc1[N+](=O)[O-] | inconclusive: 44.7 µM [fluorescent, side channel, single point] |
| COc1cccc(NC(=O)Cc2nc(-c3ccccc3)sc2-c2ccc(C)cc2)c1 | inactive |
| CC(C)N(CCC(=O)c1ccc2ccccc2c1)Cc1ccccc1 | inactive |
| CCOC(=O)c1ccc(C#Cc2ccc3c(c2)C(C)(C)CCS3)nc1 | inconclusive: 35.5 µM [fluorescent, side channel, partial curve, poor fit] |
| CCC(C)(C)c1ccc(CC(C)CN2C[C@@H](C)O[C@@H](C)C2)cc1 (stereo partly drawn) | inactive |
| Cc1cc(C)nc(Nc2ccc(O)cc2)n1 | inactive |

| Compound | Potency |
| --- | --- |
| CN(C)c1ccc(/C=C(/C(=O)c2ccc(Cl)cc2Cl)n2cncn2)cc1 | inconclusive: 39.8 µM [fluorescent, side channel, partial curve] |
| CCCC(=O)O[C@]1(C(=O)CCl)[C@H](C)C[C@@H]2[C@H]3CCC4=CC(=O)C=C[C@]4(C)[C@@]3(F)C(=O)C[C@@]21C | inactive |
| C/C=C/C(=O)Nc1cccc(C2=NOC3(C2)C[C@@H](C(N)=O)N(C(=O)c2cc([N+](=O)[O-])cc([N+](=O)[O-])c2C)C3)c1 (stereo partly drawn) | inactive |
| Cn1c(/C(C#N)=C/c2ccc(-c3ccc(S(N)(=O)=O)cc3)o2)nc2ccccc21 | inconclusive: 15.8 µM [fluorescent, side channel, partial curve] |
| O=C(CN(c1cccc(C(F)(F)F)c1)S(=O)(=O)c1ccc(Cl)c([N+](=O)[O-])c1)NCc1ccccc1Cl | inconclusive: 50.1 µM [quencher, side channel, partial curve] |
| COc1ccc(NC(=S)SC)cc1OC | inconclusive: 44.7 µM [fluorescent, side channel, partial curve, poor fit] |
| Cc1cccc(-c2oc(C)c(C)[n+]2[O-])c1 | inconclusive: 10 µM [fluorescent, side channel, single point] |
| Cc1cc2oc(=O)cc(CN3CCN(Cc4ccccc4)CC3)c2cc1O | inconclusive: 3.16 µM [fluorescent, side channel, partial curve] |
| O=[N+]([O-])c1ccccc1/C=N/n1c(-c2ccccc2)n[nH]c1=S | inconclusive: 39.8 µM [inhibitor, single point] |
| COc1ccc(/C=C/c2nc(S(=O)(=O)c3ccccc3)c(N(C)C)o2)cc1OC | inconclusive: 6.31 µM [quencher, side channel, partial curve] |
| NC(=O)c1oc2ccccc2c1NC(=O)CS(=O)(=O)c1ccccc1 | inconclusive: 15.8 µM [quencher, side channel, single point] |
| O=C(CSc1ccc(Cl)cc1)N1CCCC1 | inconclusive: 89.1 µM [inhibitor, single point] |
| N#C/C(=C\c1cccnc1)C(=O)Nc1cccc(Cl)c1 | inactive |
| Cc1ccc(C)c(N2N=C(C(=O)N(CC(C)C)c3c(N)n(Cc4ccccc4)c(=O)[nH]c3=O)CCC2=O)c1 | inconclusive: 14.1 µM [fluorescent, side channel, single point] |
| C=CCN(C(=O)CSc1nc2c(sc3ccccc32)c(=O)n1CCN(CC)CC)c1ccccc1 | inactive |
| CCN1CCN(S(=O)(=O)Cc2ccccc2Cl)CC1 | inconclusive: 14.1 µM [fluorescent, side channel, single point] |
| CCc1nc(SCC(=O)O)c2c3c(sc2n1)COC(C)(C)C3 | inconclusive: 1.58 µM [fluorescent, side channel, full curve] |
| Cc1nc2cc(-c3cccc(F)c3)nn2c(C)c1CCC(=O)N1CCN(c2ccccn2)CC1 | inactive |
| CCc1nccn1S(=O)(=O)c1cccc([N+](=O)[O-])c1 | inconclusive: 31.6 µM [quencher, side channel, partial curve] |
| CCOc1c2ccc(C(=O)NCCc3ccc(C)cc3)cc2nn1CC | inconclusive: 14.1 µM [inhibitor, single point] |
| COc1ccc(OC)c(NC(=O)c2cc(S(=O)(=O)N3CCCCC3)c[nH]2)c1 | inactive |
